Experimental data reported in ChEMBL document CHEMBL2176989, “Design, synthesis, and pharmacological evaluation of piperidin-4-yl amino aryl sulfonamides: novel, potent, selective, orally active, and brain penetrant 5-HT₆ receptor antagonists” (J Med Chem, 2012).

The chains behind the UniProt entries cited, without tags or fusion partners.
UniProt P10635, whole entry: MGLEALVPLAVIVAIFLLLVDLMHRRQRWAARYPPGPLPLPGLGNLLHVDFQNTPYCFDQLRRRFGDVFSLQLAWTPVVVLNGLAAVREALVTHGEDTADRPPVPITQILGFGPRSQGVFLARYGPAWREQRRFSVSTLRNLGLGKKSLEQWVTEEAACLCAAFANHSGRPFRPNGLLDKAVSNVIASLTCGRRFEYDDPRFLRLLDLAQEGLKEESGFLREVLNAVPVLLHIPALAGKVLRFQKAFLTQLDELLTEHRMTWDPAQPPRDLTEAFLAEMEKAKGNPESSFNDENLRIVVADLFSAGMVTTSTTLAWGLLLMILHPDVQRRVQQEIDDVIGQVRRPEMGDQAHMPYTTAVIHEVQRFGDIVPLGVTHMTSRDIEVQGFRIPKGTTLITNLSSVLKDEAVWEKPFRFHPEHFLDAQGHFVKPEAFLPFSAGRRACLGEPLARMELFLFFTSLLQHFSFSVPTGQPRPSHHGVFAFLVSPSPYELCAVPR

Target: Cytochrome P450 2D6 (Homo sapiens, UniProt P10635)
Experiment: Inhibition of CYP2D6 in human liver microsomes using dextromethorphan as substrate after 10 mins by LC-MS/MS analysis in presence of NADPH

In the case of `COc1ccc(S(=O)(=O)N2CCOc3ccc(Cl)cc32)cc1NC1CCN(C)CC1`, the IC50 is reported as 27 µM.
